The record followed here is PMC9705548.

Chains of the proteins cited; added tags and fusions are not shown. Lines headed by an entry give the natural chain unless they say otherwise; changes in a name come on top.
UniProt P05455: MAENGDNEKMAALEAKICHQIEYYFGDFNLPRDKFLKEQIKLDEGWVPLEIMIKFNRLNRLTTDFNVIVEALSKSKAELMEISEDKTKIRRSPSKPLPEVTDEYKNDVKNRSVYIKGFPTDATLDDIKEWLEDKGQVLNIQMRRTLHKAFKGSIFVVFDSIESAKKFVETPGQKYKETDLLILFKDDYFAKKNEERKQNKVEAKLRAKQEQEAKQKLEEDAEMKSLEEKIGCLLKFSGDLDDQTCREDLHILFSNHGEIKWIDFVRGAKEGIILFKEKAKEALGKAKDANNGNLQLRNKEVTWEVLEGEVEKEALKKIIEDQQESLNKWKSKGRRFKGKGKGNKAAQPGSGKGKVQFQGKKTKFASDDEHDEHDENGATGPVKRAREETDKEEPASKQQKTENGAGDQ

For some assays here: A weaker result is weaker than the reference pair of the same experiment. For some assays here: Where a protein sequence is shown, tags need not be part of it. For some assays here: The exact form of at least one protein or probe is not confirmed. For some assays here: At least one verdict rests on a figure or table, not on a statement of the authors.

The target in series [1] is T1, Mlp1 (Tetrahymena thermophila) (UniProt Q23RK6).
T1 sequence (looked up): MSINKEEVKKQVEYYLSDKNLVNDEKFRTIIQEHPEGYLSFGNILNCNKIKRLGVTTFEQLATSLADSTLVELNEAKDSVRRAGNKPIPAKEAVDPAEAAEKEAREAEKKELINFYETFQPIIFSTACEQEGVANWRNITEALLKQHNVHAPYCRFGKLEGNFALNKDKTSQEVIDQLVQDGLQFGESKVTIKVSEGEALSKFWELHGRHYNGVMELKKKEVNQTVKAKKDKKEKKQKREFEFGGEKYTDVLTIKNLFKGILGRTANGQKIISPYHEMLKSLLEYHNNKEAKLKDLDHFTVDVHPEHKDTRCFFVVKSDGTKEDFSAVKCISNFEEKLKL
Description: competition with a labelled probe. As to conditions: EMSA: 20 mM Tris-HCl pH 7.4, 100 mM KCl, 1 mM EDTA, 5 mM beta-mercaptoethanol, 10% glycerol, ~0.1 nM RNA refolded from 95 C, 30 min at 30 C, 8% native PAGE at 4 C, recombinant protein, residues 1-340, protein details: N-terminal 6xHis (pET28a). In general terms: In EMSA bound probe runs differently from free probe, usually more slowly.

The target in series [2] is hLa (Homo sapiens) (UniProt P05455). Description: competition with a labelled probe. As to conditions: EMSA: 20 mM Tris-HCl pH 7.4, 100 mM KCl, 1 mM EDTA, 5 mM beta-mercaptoethanol, 10% glycerol, ~0.1 nM RNA refolded from 95 C, 30 min at 30 C, 8% native PAGE at 4 C, recombinant protein, protein details: 6xHis (encoded in reverse primer, pET28a).
The target of series [3] is T1, Mlp1 (Tetrahymena thermophila). The experiment in a line: EMSA. As to conditions: EMSA: 20 mM Tris-HCl pH 7.4, 100 mM KCl, 1 mM EDTA, 5 mM beta-mercaptoethanol, 10% glycerol; ~0.1 nM RNA refolded from 95 C; 30 min at 30 C; 8% native PAGE at 4 C; recombinant protein; residues 1-340; protein details: N-terminal 6xHis (pET28a); label: 32P-UTP body label; letters put together from the description.

Series [4] deals with T2, Mlp1 1-250 (Tetrahymena thermophila) (UniProt Q23RK6).
T2 sequence (looked up): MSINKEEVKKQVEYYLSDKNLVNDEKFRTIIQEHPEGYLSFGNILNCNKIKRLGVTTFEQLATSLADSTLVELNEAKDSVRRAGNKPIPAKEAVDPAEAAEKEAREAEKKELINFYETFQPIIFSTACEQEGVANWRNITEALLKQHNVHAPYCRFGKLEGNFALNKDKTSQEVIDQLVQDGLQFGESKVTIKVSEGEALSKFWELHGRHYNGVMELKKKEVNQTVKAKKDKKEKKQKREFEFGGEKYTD
The experiment in a line: EMSA. The note with it: EMSA: 20 mM Tris-HCl pH 7.4, 100 mM KCl, 1 mM EDTA, 5 mM beta-mercaptoethanol, 10% glycerol; ~0.1 nM RNA refolded from 95 C; 30 min at 30 C; 8% native PAGE at 4 C; recombinant protein; residues 1-250; protein details: N-terminal 6xHis (pET28a); label: 32P-UTP body label (unlabeled as competitor); letters put together from the description.

The target of series [5] is hLa (Homo sapiens) (UniProt P05455). The experiment in a line: EMSA. The note with it: EMSA: 20 mM Tris-HCl pH 7.4, 100 mM KCl, 1 mM EDTA, 5 mM beta-mercaptoethanol, 10% glycerol; ~0.1 nM RNA refolded from 95 C; 30 min at 30 C; 8% native PAGE at 4 C; recombinant protein; protein details: 6xHis (encoded in reverse primer, pET28a); label: 5'-32P (unlabeled as competitor).
The mark [6] stands for this setting: label: 5'-32P (unlabeled as competitor).

Regarding UUUUUUUUUU [U10-3'OH], the binding result in series [1] (setting [6]) and in series [2] (setting [6]) was “binds” in each case.

Turning to “GGUUCCAUAGUAUAGUGGUUAGUACUGGGGACUUUAAAUCCCUUGACCUGGGUUCGAAUCCCAGUGGGACCU [mature tRNA GlnUUA]”, the binding result in series [3] is recorded as “binds more weakly”.

With CUGCUGUUCU [U-2C], the binding result in series [2] was “binds more weakly”.

Regarding “GAUGAAGUGGCCGAGCGGUCUAAGGCGGUAGAUUAAGGCUCUAUUCCGAAAGGGCGCGAGUUCGAAUCUCGCCUUCAUCA [mature tRNA LeuAAG]”, the binding result is on record as “binds more weakly” in series [4] and “binds more weakly” in series [2] (label: 32P-UTP body label (unlabeled as competitor), letters put together from the description).

With UUUUUUUUUU [U10-3'-P], the binding result in series [1] (3'-phosphate) and in series [2] (3'-phosphate) was “binds more weakly” in each case.

Turning to CUGCUGUCUU [U-3C], the binding result in series [2] was “binds more weakly”.

In the case of CUGCUGUUUC [U-1C], the binding result in series [2] is listed as “binds more weakly”.

Consider CUGCUGCCCC [4C], for which, in series [1], the binding result is recorded as “binds more weakly”.

Regarding CUGCUGUUUU [4U (CUGCUGUUUU-3'OH)], the binding result in series [5], in series [1] (setting [6]) and in series [2] (setting [6]) was “binds” each time.
